No constants are given. Whether binding was seen depends on the method and setting. A result given as binding can be weak or reduced; the word gives no strength. For some of these results: In cells and extracts the contact can be indirect. For some of these results: Sequences can lack the tags named with a protein. Values belong to the binder of their own block, whether it stands above or below them.
Legend:
[1] = molecular target: Tn1a (Tiller number 1a) in pBT3-N, bait of the membrane yeast two-hybrid (rice (Oryza sativa L.)); test: two-hybrid; membrane system yeast two-hybrid; yeast NYM51 co-transformed with pPR3-N-OsCCC1 and pBT3-N-Tn1a; growth on -His/-Ade/-Leu/-Trp medium for 2-3 days, also with X-β-gal
[2] = molecular target: Tn1a-nYFP (rice (Oryza sativa L.), Nipponbare); test: split reporter; BiFC in rice protoplasts; nYFP and cYFP fusions co-transfected; YFP read by confocal microscopy
[3] = molecular target: Tn1a-GFP (rice (Oryza sativa L.)); test: co-IP; Tn1a-GFP and OsCCC1-Myc co-transformed into wild-type rice protoplasts, 15 h in the dark; IP buffer 50 mM Tris-HCl pH 7.5, 150 mM NaCl, 0.2% NP-40, 5 mM DTT; GFP beads 2 h; blot with anti-MYC
[4] = molecular target: Tn1a-cYFP (rice (Oryza sativa L.), Nipponbare); test: split reporter; BiFC in rice protoplasts; nYFP and cYFP fusions co-transfected; YFP read by confocal microscopy

binding [2]: binds
B2: OsCCC1-cYFP (protein, UniProt Q6Z0E2 1-989)
chain: MENGEIEGAADDGVPVPAPPNGRRYRPVGSSDRAVIQMTSMEPGSSSSTAVAAVSGITPQPPRNLTVDPSMQEDHTVSQGDSKLELFGFDSLVNILGLKSMTGEQIQAPSSPRDGEDVAITIGRPKETGPKFGTMMGVFVPCLQNILGIIYYIRFTWIVGMAGVWQSLVLVSFCGACTFLTGISLSAIATNGAMKGGGPYYLIGRALGPEVGVSIGLCFFLGNAVAGSMYVLGAVETFLDAVPSAGFFKESVTVVNNTLVNGTATASTATISTPSLHDLQVYGVIVTILLCFIVFGGVKIINKVAPAFLIPVLFSLLCIYLGVFIAPRHNAPKGITGLSITTFKDNWGSEYQRTNNAGVPDPNGSIYWDFNALVGLFFPAVTGIMAGSNRSASLKDTQRSIPIGTLSATLTTTAMYLFSVLLFGALATREELLTDRLLTATVAWPAPAVIYIGIILSTLGAALQSLTGAPRLLAAIANDDILPVLNYFKVSEGAEPHSATLFTAFICICCVVIGNLDLITPTITMFFLLCYAGVNLSCFLLDLLDAPSWRPRWKFHHWSLSLVGALLCVVIMFLISWSFTVVSLALASLIYYYVSLKGKAGDWGDGFKSAYFQLALRSLRSLGANQVHPKNWYPIPLIFCRPWGKLPENVPCHPKLADFANCMKKKGRGMSIFVSIIDGDYHELAEDAKTACRQLDTYIEYKRCEGVAEIIVAPSMSEGFRSIVQTMGLGNLKPNIIVMRYPEIWRRENLIQIPSTFVSIINDCIIANKAVVIVKGLDEWPNEYQRQYGTIDLYWIVRDGGLMLLLSQLLLTKETFESCKIQVFCIAEEDTDAEELKADVKKFLYDLRMHAEVIVVTMKSWEPHMESSSSGAPQDDSQEAYTSAQRRISTYLSEMKETAQREGHPLMEDGKQVVVNEQKIEKFLYTMFKLNSTILRYSRMAAVVLVSLPPPPLNHPAYFYMEYMDLLVENVPRMLIVRGYRRDVVTFFT

binding [4]: binds
B4: OsCCC1-nYFP (protein, UniProt Q6Z0E2 1-989)
chain: MENGEIEGAADDGVPVPAPPNGRRYRPVGSSDRAVIQMTSMEPGSSSSTAVAAVSGITPQPPRNLTVDPSMQEDHTVSQGDSKLELFGFDSLVNILGLKSMTGEQIQAPSSPRDGEDVAITIGRPKETGPKFGTMMGVFVPCLQNILGIIYYIRFTWIVGMAGVWQSLVLVSFCGACTFLTGISLSAIATNGAMKGGGPYYLIGRALGPEVGVSIGLCFFLGNAVAGSMYVLGAVETFLDAVPSAGFFKESVTVVNNTLVNGTATASTATISTPSLHDLQVYGVIVTILLCFIVFGGVKIINKVAPAFLIPVLFSLLCIYLGVFIAPRHNAPKGITGLSITTFKDNWGSEYQRTNNAGVPDPNGSIYWDFNALVGLFFPAVTGIMAGSNRSASLKDTQRSIPIGTLSATLTTTAMYLFSVLLFGALATREELLTDRLLTATVAWPAPAVIYIGIILSTLGAALQSLTGAPRLLAAIANDDILPVLNYFKVSEGAEPHSATLFTAFICICCVVIGNLDLITPTITMFFLLCYAGVNLSCFLLDLLDAPSWRPRWKFHHWSLSLVGALLCVVIMFLISWSFTVVSLALASLIYYYVSLKGKAGDWGDGFKSAYFQLALRSLRSLGANQVHPKNWYPIPLIFCRPWGKLPENVPCHPKLADFANCMKKKGRGMSIFVSIIDGDYHELAEDAKTACRQLDTYIEYKRCEGVAEIIVAPSMSEGFRSIVQTMGLGNLKPNIIVMRYPEIWRRENLIQIPSTFVSIINDCIIANKAVVIVKGLDEWPNEYQRQYGTIDLYWIVRDGGLMLLLSQLLLTKETFESCKIQVFCIAEEDTDAEELKADVKKFLYDLRMHAEVIVVTMKSWEPHMESSSSGAPQDDSQEAYTSAQRRISTYLSEMKETAQREGHPLMEDGKQVVVNEQKIEKFLYTMFKLNSTILRYSRMAAVVLVSLPPPPLNHPAYFYMEYMDLLVENVPRMLIVRGYRRDVVTFFT

Further lines, the binder ahead of its results:

B1: OsCCC1 (cation-chloride cotransporter 1) in pPR3-N, prey of the membrane yeast two-hybrid (protein, UniProt Q6Z0E2 1-989)
chain: MENGEIEGAADDGVPVPAPPNGRRYRPVGSSDRAVIQMTSMEPGSSSSTAVAAVSGITPQPPRNLTVDPSMQEDHTVSQGDSKLELFGFDSLVNILGLKSMTGEQIQAPSSPRDGEDVAITIGRPKETGPKFGTMMGVFVPCLQNILGIIYYIRFTWIVGMAGVWQSLVLVSFCGACTFLTGISLSAIATNGAMKGGGPYYLIGRALGPEVGVSIGLCFFLGNAVAGSMYVLGAVETFLDAVPSAGFFKESVTVVNNTLVNGTATASTATISTPSLHDLQVYGVIVTILLCFIVFGGVKIINKVAPAFLIPVLFSLLCIYLGVFIAPRHNAPKGITGLSITTFKDNWGSEYQRTNNAGVPDPNGSIYWDFNALVGLFFPAVTGIMAGSNRSASLKDTQRSIPIGTLSATLTTTAMYLFSVLLFGALATREELLTDRLLTATVAWPAPAVIYIGIILSTLGAALQSLTGAPRLLAAIANDDILPVLNYFKVSEGAEPHSATLFTAFICICCVVIGNLDLITPTITMFFLLCYAGVNLSCFLLDLLDAPSWRPRWKFHHWSLSLVGALLCVVIMFLISWSFTVVSLALASLIYYYVSLKGKAGDWGDGFKSAYFQLALRSLRSLGANQVHPKNWYPIPLIFCRPWGKLPENVPCHPKLADFANCMKKKGRGMSIFVSIIDGDYHELAEDAKTACRQLDTYIEYKRCEGVAEIIVAPSMSEGFRSIVQTMGLGNLKPNIIVMRYPEIWRRENLIQIPSTFVSIINDCIIANKAVVIVKGLDEWPNEYQRQYGTIDLYWIVRDGGLMLLLSQLLLTKETFESCKIQVFCIAEEDTDAEELKADVKKFLYDLRMHAEVIVVTMKSWEPHMESSSSGAPQDDSQEAYTSAQRRISTYLSEMKETAQREGHPLMEDGKQVVVNEQKIEKFLYTMFKLNSTILRYSRMAAVVLVSLPPPPLNHPAYFYMEYMDLLVENVPRMLIVRGYRRDVVTFFT
binding [1]: binds

B3: OsCCC1-Myc (protein, UniProt Q6Z0E2 1-989)
chain: MENGEIEGAADDGVPVPAPPNGRRYRPVGSSDRAVIQMTSMEPGSSSSTAVAAVSGITPQPPRNLTVDPSMQEDHTVSQGDSKLELFGFDSLVNILGLKSMTGEQIQAPSSPRDGEDVAITIGRPKETGPKFGTMMGVFVPCLQNILGIIYYIRFTWIVGMAGVWQSLVLVSFCGACTFLTGISLSAIATNGAMKGGGPYYLIGRALGPEVGVSIGLCFFLGNAVAGSMYVLGAVETFLDAVPSAGFFKESVTVVNNTLVNGTATASTATISTPSLHDLQVYGVIVTILLCFIVFGGVKIINKVAPAFLIPVLFSLLCIYLGVFIAPRHNAPKGITGLSITTFKDNWGSEYQRTNNAGVPDPNGSIYWDFNALVGLFFPAVTGIMAGSNRSASLKDTQRSIPIGTLSATLTTTAMYLFSVLLFGALATREELLTDRLLTATVAWPAPAVIYIGIILSTLGAALQSLTGAPRLLAAIANDDILPVLNYFKVSEGAEPHSATLFTAFICICCVVIGNLDLITPTITMFFLLCYAGVNLSCFLLDLLDAPSWRPRWKFHHWSLSLVGALLCVVIMFLISWSFTVVSLALASLIYYYVSLKGKAGDWGDGFKSAYFQLALRSLRSLGANQVHPKNWYPIPLIFCRPWGKLPENVPCHPKLADFANCMKKKGRGMSIFVSIIDGDYHELAEDAKTACRQLDTYIEYKRCEGVAEIIVAPSMSEGFRSIVQTMGLGNLKPNIIVMRYPEIWRRENLIQIPSTFVSIINDCIIANKAVVIVKGLDEWPNEYQRQYGTIDLYWIVRDGGLMLLLSQLLLTKETFESCKIQVFCIAEEDTDAEELKADVKKFLYDLRMHAEVIVVTMKSWEPHMESSSSGAPQDDSQEAYTSAQRRISTYLSEMKETAQREGHPLMEDGKQVVVNEQKIEKFLYTMFKLNSTILRYSRMAAVVLVSLPPPPLNHPAYFYMEYMDLLVENVPRMLIVRGYRRDVVTFFT
binding [3]: binds
